Test results published in publication PMC6303017, “Effects of RNA structure and salt concentration on the affinity and kinetics of interactions between pentatricopeptide repeat proteins and their RNA ligands”.
For at least one entry, the source does not settle the construct or the ends of the probe. Negatives hold for the conditions tested. At least one verdict was read from the data and is not stated in words by the source. Tags and fusion partners may be left off the protein sequences shown. For some assays here: A weaker result is weaker than the reference pair of the same experiment.

Columns and labels:
[1] = biological target: T1, PPR10 (UniProt B8Y6I0); experiment: SPR; settings: SPR: 100 mM HEPES pH 7.5, 150 mM NaCl, 3 mM EDTA, 1 mM 2-mercaptoethanol, 0.005% P20, recombinant protein, protein details: MBP fusion, MBP cleaved off, 6-carbon linker
T1 sequence (looked up, limits assumed): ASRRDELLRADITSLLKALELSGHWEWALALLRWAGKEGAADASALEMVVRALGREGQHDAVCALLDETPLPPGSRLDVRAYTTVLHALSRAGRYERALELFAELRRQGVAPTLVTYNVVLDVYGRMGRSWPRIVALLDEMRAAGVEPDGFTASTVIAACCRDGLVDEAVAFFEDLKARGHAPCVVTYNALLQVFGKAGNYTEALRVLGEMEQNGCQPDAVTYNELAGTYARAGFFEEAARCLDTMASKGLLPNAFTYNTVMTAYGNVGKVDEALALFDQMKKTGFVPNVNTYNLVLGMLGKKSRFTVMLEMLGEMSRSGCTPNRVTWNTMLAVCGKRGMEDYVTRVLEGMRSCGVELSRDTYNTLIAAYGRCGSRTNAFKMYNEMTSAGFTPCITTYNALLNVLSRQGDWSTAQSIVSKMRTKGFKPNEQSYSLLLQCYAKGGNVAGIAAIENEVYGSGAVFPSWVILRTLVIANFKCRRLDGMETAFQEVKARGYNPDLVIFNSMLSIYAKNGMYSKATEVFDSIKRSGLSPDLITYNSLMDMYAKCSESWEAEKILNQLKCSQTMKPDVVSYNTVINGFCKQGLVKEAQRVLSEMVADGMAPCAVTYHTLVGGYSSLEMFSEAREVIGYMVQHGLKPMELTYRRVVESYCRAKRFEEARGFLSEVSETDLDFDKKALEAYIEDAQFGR

[2] = biological target: T2, HCF152 (UniProt Q9SF38); experiment: SPR; settings: specificity negative control; SPR: 100 mM HEPES pH 7.5, 150 mM NaCl, 3 mM EDTA, 1 mM 2-mercaptoethanol, 0.005% P20; recombinant protein; protein details: MBP fusion, MBP cleaved off; label: 3' biotin, 6-carbon linker
T2 sequence (looked up, limits assumed): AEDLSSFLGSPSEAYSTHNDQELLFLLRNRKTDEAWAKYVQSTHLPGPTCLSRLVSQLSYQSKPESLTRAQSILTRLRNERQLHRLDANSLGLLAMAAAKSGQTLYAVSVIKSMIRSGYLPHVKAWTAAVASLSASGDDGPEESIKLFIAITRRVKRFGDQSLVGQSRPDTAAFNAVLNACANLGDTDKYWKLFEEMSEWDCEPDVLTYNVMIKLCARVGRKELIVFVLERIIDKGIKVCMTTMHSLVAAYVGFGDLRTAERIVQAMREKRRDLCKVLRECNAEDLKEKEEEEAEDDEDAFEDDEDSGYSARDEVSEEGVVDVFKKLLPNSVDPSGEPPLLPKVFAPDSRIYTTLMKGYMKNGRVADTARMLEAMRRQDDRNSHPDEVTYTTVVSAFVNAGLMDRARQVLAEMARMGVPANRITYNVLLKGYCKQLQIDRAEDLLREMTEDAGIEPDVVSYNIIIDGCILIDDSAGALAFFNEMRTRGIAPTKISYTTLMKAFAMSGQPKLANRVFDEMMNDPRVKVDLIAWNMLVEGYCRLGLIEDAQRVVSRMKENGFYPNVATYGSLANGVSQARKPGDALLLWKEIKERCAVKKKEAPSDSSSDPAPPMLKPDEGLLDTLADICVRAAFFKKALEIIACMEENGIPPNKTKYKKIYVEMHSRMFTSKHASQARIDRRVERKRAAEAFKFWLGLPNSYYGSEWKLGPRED

ACAAUGUUUUUUAUUGUAUCCUUAACCAUUUCUUU [5'-6bp SPR RNA]
binding result ([1]; 150 mM NaCl, on-rate lower and off-rate higher several fold, label: 3' biotin): binds more weakly

AUUGUAUCCUUAACCAUUUCUUUUUUUUUGAAAGA [3'-6bp SPR RNA]
binding result ([1]; 150 mM NaCl, RNA tethered at 5' end, label: 5' biotin): binds more weakly

GAUUGUAUCCUUAACCAUUUCUUUU [atpH SPR RNA]
binding result ([1]; 300 mM NaCl vs 75 mM: on-rate ~100-fold lower, off-rate ~4-fold higher, label: 3' biotin): binds more weakly
binding result [2]: no binding

UGGUAGUUCGACGUGGAUUUU [petB SPR RNA]
binding result ([1]; specificity negative control, label: 3' biotin): no binding
